Source: publication PMC7819943, “Rice protein-binding microarrays: a tool to detect cis-acting elements near promoter regions in rice”
Some of the results follow.

The chains behind the UniProt entries cited, without tags or fusion partners.
UniProt Q0JBA9, entry or part of it: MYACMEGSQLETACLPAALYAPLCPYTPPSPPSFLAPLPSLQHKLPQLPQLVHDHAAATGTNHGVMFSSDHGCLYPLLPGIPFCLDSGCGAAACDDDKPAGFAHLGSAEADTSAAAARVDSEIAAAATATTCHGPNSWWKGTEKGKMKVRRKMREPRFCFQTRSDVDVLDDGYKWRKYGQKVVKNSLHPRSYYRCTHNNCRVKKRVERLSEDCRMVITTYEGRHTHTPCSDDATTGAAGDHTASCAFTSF

target: OsWRKY34 (Oryza sativa, UniProt Q0JBA9 1-250); assay: protein-binding microarray (RPBM); PBS, 2% BSA, 51.3 ng/ul salmon testes DNA, 50 uM zinc acetate, 200 nM TF, 25 C, 1 h; high values mean tight binding; conditions: protein: recombinant; tags: N-terminal polyhistidine and DsRed monomer fusion (pET32a); label: CyDye5-dUTP incorporated in the synthesized complementary strand; 3' TTTTT single-stranded linker to array surface; dsDNA, one strand shown
Outline: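 The binding signal is fluorescence intensity per array feature (arbitrary units). Readings came from an Axon 4000B scanner after a washed, 2% BSA-blocked, double-stranded custom Agilent array had been incubated for 1 h at 25 °C with 200 nM protein and 50 µM zinc acetate. The protein was a Ni–NTA-purified transcription factor fused N-terminally to polyhistidine and DsRed, expressed in E. coli BL21-CodonPlus.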

Sequence | binding signal
AGTTCAAAATCCATCCGGATCCCACATTCTCTTCCCCAAGCGGAGTCACCTAGTGCAG | 8750 fluorescence intensity (a.u.)
GCCAGTTTGCCACCCTTCCACTCGTTCGCGCTCTCTCTCTCGGAGTCACCTAGTGCAG | 11300 fluorescence intensity (a.u.)
GAACACCACCAAATCCGATCATCTCTCACCTAGCTGCCATCGGAGTCACCTAGTGCAG | 10500 fluorescence intensity (a.u.)
TAGTCTTTTCCATGTCATGTGATCATGTGTGGAGTTGATTCGGAGTCACCTAGTGCAG | 8550 fluorescence intensity (a.u.)
CTCCTTGGGCCGGCGGTGCTCCCGGACAACATCGCCTTCACGGAGTCACCTAGTGCAG | 12700 fluorescence intensity (a.u.)
CAGATTATAATTGTCGACGCTATTTGTGATCCCGTGCATGCGGAGTCACCTAGTGCAG | 8780 fluorescence intensity (a.u.)
GTGCTGCTCTGTTGGATCGCAACGGTATATTTATTTCTATCGGAGTCACCTAGTGCAG | 9540 fluorescence intensity (a.u.)
GCACACCGTCTTCGCAATCTCCTTTGGTCGGCTGCCCAATCGGAGTCACCTAGTGCAG | 8170 fluorescence intensity (a.u.)
AGTGGGGAAGGTGGAGAGGGTGGGTTGGGTGTTAGTACCACGGAGTCACCTAGTGCAG | 14500 fluorescence intensity (a.u.)
CTTTATCTGTGGATGTGTATATGTAGGTGTTGGTTGATCGCGGAGTCACCTAGTGCAG | 8630 fluorescence intensity (a.u.)
CCCGTTTCACTGTGTGTGTGTGTGTGACGTTAACACGCTACGGAGTCACCTAGTGCAG | 8490 fluorescence intensity (a.u.)
TCAATTCCCACGGCCGTACTACTACGTGTCATCGCAATCTCGGAGTCACCTAGTGCAG | 8150 fluorescence intensity (a.u.)
TCGGCCTGTTCGTTCGATCGATCGATCTCTCCCGCTACGCCGGAGTCACCTAGTGCAG | 9680 fluorescence intensity (a.u.)
AAACTAGCTACTTGACCCTAGAGTACTTCTACAACCATCCCGGAGTCACCTAGTGCAG | 8810 fluorescence intensity (a.u.)
TACTCTCATGATTTTCTCTTTGTTCCAGACTTGCCAATCCCGGAGTCACCTAGTGCAG | 9150 fluorescence intensity (a.u.)
TGAAGCAGTCTCACCCACCCGACCCAACCGAACCAACCCGCGGAGTCACCTAGTGCAG | 9490 fluorescence intensity (a.u.)
ACTTTCTTTTTTTCTTTTTAACCTTGACCTTTACTGGCATCGGAGTCACCTAGTGCAG | 8690 fluorescence intensity (a.u.)
AGCTGGATGATTTTCGCCGCCGCCGCCGCCGTGTTCTTTTCGGAGTCACCTAGTGCAG | 8280 fluorescence intensity (a.u.)
GACCACTCCGAAGCTGTAGACATCAACCTTTGCTGTTATTCGGAGTCACCTAGTGCAG | 8400 fluorescence intensity (a.u.)
ATTATTTTTTTCATTCATGTTCGAAAACCACTTCCGACATCGGAGTCACCTAGTGCAG | 9810 fluorescence intensity (a.u.)
GCATATTTTACATTAGTTTCATTAGCACGTTTGTCATCAACGGAGTCACCTAGTGCAG | 8980 fluorescence intensity (a.u.)

Sequence | binding signal
GCCCCGCCGTCGTCTTGCCGCGCCGCTCCTCCTCATCATCCGGAGTCACCTAGTGCAG | 9500 fluorescence intensity (a.u.)
AGCCGCGCCGATTTTGTTCGTTCCGTTTCTAGGAGTAGCACGGAGTCACCTAGTGCAG | 8500 fluorescence intensity (a.u.)
CCCGTGCGGCGCGCACACGTCACTCTACCTAGCTTACACCCGGAGTCACCTAGTGCAG | 10900 fluorescence intensity (a.u.)
CGATTTTTCTGGCGCTGATCGGGCGCCCGATCCCCGGTATCGGAGTCACCTAGTGCAG | 9160 fluorescence intensity (a.u.)
TGTGTGCAATGCCGTGATGATGCGTTTGGAGAGGTGACTCCGGAGTCACCTAGTGCAG | 8040 fluorescence intensity (a.u.)
ATTCAACATCCATGTCATCCTATCTCTATATTTTTTCTATCGGAGTCACCTAGTGCAG | 10400 fluorescence intensity (a.u.)
TGTTAATTCCACATCAGCGCTACGTCAATGCCACGTGGTACGGAGTCACCTAGTGCAG | 8350 fluorescence intensity (a.u.)
AAGAAAAAAAAGAGAGAGGAGTGCATTGCCCGCGTGTCCGCGGAGTCACCTAGTGCAG | 10600 fluorescence intensity (a.u.)
ATTTGTTGCCAAAGTGGTTCTTACCTTTGTTTTTCTTTGACGGAGTCACCTAGTGCAG | 10400 fluorescence intensity (a.u.)
CTGGGCCCAGTTGTTGACTTCCACCTTTGCTTGGTTAGCTCGGAGTCACCTAGTGCAG | 9300 fluorescence intensity (a.u.)
TTGGGATGAGATTTTTTTTTTTTTGTCGAATTCTGACGAACGGAGTCACCTAGTGCAG | 9650 fluorescence intensity (a.u.)
CCCAAGTCAAAGCCCAAGCCCAGCCCAACCAGCGGTGACCCGGAGTCACCTAGTGCAG | 8160 fluorescence intensity (a.u.)
AACCAATCACCGGCCGCGAGCGTCACCCCGGAAAATATAACGGAGTCACCTAGTGCAG | 8280 fluorescence intensity (a.u.)
GGGGCGTCCAGCGAGGCTTCAGTTTAGCTGCTCTCTTTTGCGGAGTCACCTAGTGCAG | 9650 fluorescence intensity (a.u.)
CTCTTGCACAAGGTACTTTTCTTTTTCTTTCTTTATTCTTCGGAGTCACCTAGTGCAG | 9310 fluorescence intensity (a.u.)
AATGGTTTTGTGAGTTGAGGGATGCCATATTATCTTGTTTCGGAGTCACCTAGTGCAG | 8750 fluorescence intensity (a.u.)
TCCCCAACCCTCATCGCTTTCAATGTGTTCGTCTATCTAACGGAGTCACCTAGTGCAG | 10300 fluorescence intensity (a.u.)
GTTTTGAAAGGTATTGTTGGGTAGTAATAGGCTTCATCTTCGGAGTCACCTAGTGCAG | 10200 fluorescence intensity (a.u.)
CGCCCATCGCGGCATCGCCTCCTCTGCTTCGTTTCCTTCTCGGAGTCACCTAGTGCAG | 8600 fluorescence intensity (a.u.)
AGCCGATCAGCTTCCAGCTCTTCATCCCAGCTTGCATCGTCGGAGTCACCTAGTGCAG | 9300 fluorescence intensity (a.u.)
TTCATTATTCATCCATCACTCGTTCGATCTCTCCCATATACGGAGTCACCTAGTGCAG | 10100 fluorescence intensity (a.u.)

Looked up one by one from above:
Sequence | binding signal
ATTCAACATCCATGTCATCCTATCTCTATATTTTTTCTATCGGAGTCACCTAGTGCAG | 10400 fluorescence intensity (a.u.)
TTCATTATTCATCCATCACTCGTTCGATCTCTCCCATATACGGAGTCACCTAGTGCAG | 10100 fluorescence intensity (a.u.)
AGCCGCGCCGATTTTGTTCGTTCCGTTTCTAGGAGTAGCACGGAGTCACCTAGTGCAG | 8500 fluorescence intensity (a.u.)
CGCCCATCGCGGCATCGCCTCCTCTGCTTCGTTTCCTTCTCGGAGTCACCTAGTGCAG | 8600 fluorescence intensity (a.u.)
